Measured values reported in patent publication US20210348125A1, “INDUCED STEM MEMORY T CELLS AND METHODS OF USE THEREOF” (Augusta University Research Institute, Inc., priority 2017, published 2021).
For at least one compound, name, drawing or mass did not settle the structure.

Tests used:
human CD8^+ T-cells = test: Activation of human CD8+ T-cells with anti-CD3 antibody with or without MEKi; type: cell-based; details: 72 h anti-CD3 activation
B16 tumors = test: B16 transplantable tumor model in mice; type: in vivo, mouse
pMel-1 CD8^+ T-cells [1] = test: Antigen re-challenge (recall response) of activated CD8+ T-cells; type: cell-based, mouse
Source text: FIGS. 4A-4C show FACS analysis of memory phenotype of activated cells (gp100 vs gp100 +MEKi) after antigen (Ag) re-challenge with gp100 peptide for 72 hrs. […]. FIGS. 4M-4O show the scheme of ACT of B16 tumor-bearing mice with respectively activated CD8^+ T-cells as indicated FIG. 4M, estimation of tumor volume FIG. 4N and percent survival FIG. 4O in treated groups. FIGS. 4P-4R show the estimation of numbers of adoptively transferred cells in spleens of treated mice 30 days after ACT as indicated. For the untreated (UT) and control (CTX) groups where the endpoint for euthanasia was reached earlier, the mice were sacrificed and spleens harvested and stored as single-cell suspensions at −80° C. At the end of the study, all samples were stained and processed together for FACS analysis. Representative of two experiments is shown. *P<0.05, **P<0.01, ***P<0.001.
Cell activation, drug treatment and adoptive transfer. FACS-sorted CD8^+ cells from pMel-1 mice were activated with gp100 peptide ([…] (SEQ ID NO:2); 1 μM/10^6 cells/mL) either alone or in combination with MEKi (500-1000 nM) in T-cell medium supplemented with 30 units of IL2 for 48 hours unless otherwise stated. In some experiments, at 48 h cells were washed and re-incubated in IL2-containing medium supplemented with gp100 and/or anti-OX40-Ab for 72 hours. […]

pMel-1 CD8^+ T-cells [2] = test: Metabolic assays (Seahorse OCR, ECAR, SRC); type: cell-based, mouse; details: 48 h activation with gp100 with/without MEKi
pMel-1 CD8^+ T-cells [3] = test: Re-challenge of activated CD8+ T-cells with gp100 and anti-OX40-Ab; type: cell-based, mouse; details: MEKi-treated vs untreated cell populations
c-Raf, B-Raf, or ERK1/2 = details: cited from earlier work
[4] = B16, MEKi 10 mg/Kg orally 15 days + gp100 vaccine

Row | SMILES | numbers of CD45ROlo CCR7hi CD8+ lymphocytes (human CD8^+ T-cells) | numbers of cells with low-mitochondrial potential (human CD8^+ T-cells) | tumor growth (B16 tumors; B16, large tumors (~0.15 cm^3), MEKi + vaccine + anti-OX40-Ab) | survival (B16 tumors; [4]) | tumor growth (B16 tumors; [4]) | mouse survival (B16 tumors; B16, MEKi + vaccine + anti-OX40-Ab) | IFNγ levels in granzyme B-expressing cells after re-challenge (pMel-1 CD8^+ T-cells [1]) | KLRG1 levels after re-challenge (pMel-1 CD8^+ T-cells [1]) | ECAR (pMel-1 CD8^+ T-cells [2]) | OCR (pMel-1 CD8^+ T-cells [2]) | SRC (pMel-1 CD8^+ T-cells [2]) | granzyme B upon rechallenge (pMel-1 CD8^+ T-cells [3]) | inhibition of the kinase activities of c-Raf, B-Raf, or ERK1/2 (c-Raf, B-Raf, or ERK1/2)
1 | Cn1cnc2c(F)c(Nc3ccc(Br)cc3Cl)c(C(=O)NOCCO)cc21 [Selumetinib] | significant increase | significant increase | significant reduction in tumor growth | increased survival | reduced tumor growth | increase in mouse survival | higher levels | lower levels | lower | significantly higher | significantly higher | comparable levels | 
2 | CC(=O)Nc1cccc(-n2c(=O)n(C3CC3)c(=O)c3c(Nc4ccc(I)cc4F)n(C)c(=O)c(C)c32)c1 [Trametinib] |  |  |  |  |  |  |  |  |  |  |  |  | no inhibition
